These are yes or no findings as the source states them, for the method shown. A result given as binding can be weak or reduced; the word gives no strength.
Biological target: T1, recombinant human IL-32α produced in E. coli (human) (UniProt P24001)
T1 sequence: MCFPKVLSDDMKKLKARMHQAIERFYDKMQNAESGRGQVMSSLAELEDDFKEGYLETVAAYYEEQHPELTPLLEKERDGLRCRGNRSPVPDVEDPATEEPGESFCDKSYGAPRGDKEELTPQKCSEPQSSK
Assay: SPR (BIAcore), IL-32 immobilized

Sequences of proteins named here, by UniProt entry; tags and fusion partners are left off. A change or cut given only in a name is not applied to a line headed by its entry.
UniProt P24001: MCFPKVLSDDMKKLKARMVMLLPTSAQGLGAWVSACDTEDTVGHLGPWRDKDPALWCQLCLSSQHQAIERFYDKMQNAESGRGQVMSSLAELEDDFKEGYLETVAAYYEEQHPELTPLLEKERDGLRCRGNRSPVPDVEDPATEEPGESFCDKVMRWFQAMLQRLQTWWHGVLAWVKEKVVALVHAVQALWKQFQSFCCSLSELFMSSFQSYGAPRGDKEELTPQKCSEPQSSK
UniProt P24158: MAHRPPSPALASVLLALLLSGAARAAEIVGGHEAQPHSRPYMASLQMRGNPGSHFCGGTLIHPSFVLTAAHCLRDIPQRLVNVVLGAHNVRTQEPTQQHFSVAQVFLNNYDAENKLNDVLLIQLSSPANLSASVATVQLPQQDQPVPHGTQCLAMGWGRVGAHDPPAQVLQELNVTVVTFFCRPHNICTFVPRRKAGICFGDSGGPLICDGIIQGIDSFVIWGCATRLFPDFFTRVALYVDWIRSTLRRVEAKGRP

Substance: human urinary PR-3 inactivated by phenyl methyl sulfonyl fluoride (PMSF) (from UniProt P24158) (enzyme)
- binding: binds
